Values from PubChem BioAssay AID652272 (Drosophila RNAi Screening Center, 2013)
Screen: 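Genes whose knock-down decreases or increases Hedgehog reporter output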 (primary screen). Cells: Drosophila clone 8 (Cl8) cells. Reagent: long dsRNA against Drosophila genes. Detection: 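Plate reader light from a firefly reporter under a ptc promoter fragment that responds to Hedgehog, with Renilla light as transfection reference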. Reading the numbers: firefly Hh reporter signal: higher = more ptc reporter light; Renilla reference signal: higher = more Renilla control light. Hit rule: 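Hit when the z-score averaged over two replicates is under -2 or over +3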. Calls: active = hit: reporter lowered or raised; inactive = not a hit.
In all, the deposit lists about 21,000 reagents; shown is an unselected part of those that have a named target and a result. In the full data, 503 (2.4%) were called active. 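Raw plate light values, not normalised; calls rest on replicate z-scores that were not deposited; hits include reporter decreases as well as increases.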 The record does not give: the amount of reagent, the time to read-out.

Septin4 [DRSC20205] → firefly Hh reporter signal, replicate 1: 99530; firefly Hh reporter signal, replicate 2: 82112; Renilla reference signal, replicate 1: 1731; Renilla reference signal, replicate 2: 2134; outcome: inactive
wdb [DRSC14163] → firefly Hh reporter signal, replicate 1: 42568; firefly Hh reporter signal, replicate 2: 59901; Renilla reference signal, replicate 1: 1452; Renilla reference signal, replicate 2: 2464; outcome: inactive
CG1637 [DRSC18865] → firefly Hh reporter signal, replicate 1: 5.15e5; firefly Hh reporter signal, replicate 2: 1.58e5; Renilla reference signal, replicate 1: 26796; Renilla reference signal, replicate 2: 3787; outcome: inactive
CG1637 [DRSC19748] → firefly Hh reporter signal, replicate 1: 74784; firefly Hh reporter signal, replicate 2: 97186; Renilla reference signal, replicate 1: 1528; Renilla reference signal, replicate 2: 2295; outcome: inactive
CG1637 [DRSC19749] → firefly Hh reporter signal, replicate 1: 67328; firefly Hh reporter signal, replicate 2: 2.22e5; Renilla reference signal, replicate 1: 2029; Renilla reference signal, replicate 2: 8147; outcome: inactive
CR31824 [DRSC01517] → firefly Hh reporter signal, replicate 1: 92387; firefly Hh reporter signal, replicate 2: 2.33e5; Renilla reference signal, replicate 1: 2193; Renilla reference signal, replicate 2: 10644; outcome: inactive
beta-PheRS [DRSC15859] → firefly Hh reporter signal, replicate 1: 83045; firefly Hh reporter signal, replicate 2: 76265; Renilla reference signal, replicate 1: 3591; Renilla reference signal, replicate 2: 3253; outcome: inactive
LIMK1 [DRSC19811] → firefly Hh reporter signal, replicate 1: 1.01e5; firefly Hh reporter signal, replicate 2: 76057; Renilla reference signal, replicate 1: 2480; Renilla reference signal, replicate 2: 2032; outcome: inactive
Vm26Aa [DRSC03472] → firefly Hh reporter signal, replicate 1: 1.67e5; firefly Hh reporter signal, replicate 2: 51305; Renilla reference signal, replicate 1: 4247; Renilla reference signal, replicate 2: 5488; outcome: inactive

A portion from the list above, as a working copy:
beta-PheRS [DRSC15859] → firefly Hh reporter signal, replicate 1: 83045; firefly Hh reporter signal, replicate 2: 76265; Renilla reference signal, replicate 1: 3591; Renilla reference signal, replicate 2: 3253; outcome: inactive
LIMK1 [DRSC19811] → firefly Hh reporter signal, replicate 1: 1.01e5; firefly Hh reporter signal, replicate 2: 76057; Renilla reference signal, replicate 1: 2480; Renilla reference signal, replicate 2: 2032; outcome: inactive

The list goes on.
CG4716 [DRSC06884] → firefly Hh reporter signal, replicate 1: 1.24e5; firefly Hh reporter signal, replicate 2: 93111; Renilla reference signal, replicate 1: 4315; Renilla reference signal, replicate 2: 3251; outcome: inactive
CG7514 [DRSC08597] → firefly Hh reporter signal, replicate 1: 33619; firefly Hh reporter signal, replicate 2: 54320; Renilla reference signal, replicate 1: 4108; Renilla reference signal, replicate 2: 3747; outcome: inactive
CG14480 [DRSC06452] → firefly Hh reporter signal, replicate 1: 1.13e5; firefly Hh reporter signal, replicate 2: 56994; Renilla reference signal, replicate 1: 3369; Renilla reference signal, replicate 2: 3946; outcome: inactive
Ada3 [DRSC20321] → firefly Hh reporter signal, replicate 1: 89460; firefly Hh reporter signal, replicate 2: 2.91e5; Renilla reference signal, replicate 1: 2096; Renilla reference signal, replicate 2: 11696; outcome: inactive
Ada3 [DRSC20322] → firefly Hh reporter signal, replicate 1: 79414; firefly Hh reporter signal, replicate 2: 1.87e5; Renilla reference signal, replicate 1: 1413; Renilla reference signal, replicate 2: 7760; outcome: inactive
CG42342 [DRSC13165] → firefly Hh reporter signal, replicate 1: 38152; firefly Hh reporter signal, replicate 2: 2.99e5; Renilla reference signal, replicate 1: 5972; Renilla reference signal, replicate 2: 6196; outcome: inactive
CG42342 [DRSC14378] → firefly Hh reporter signal, replicate 1: 1.82e5; firefly Hh reporter signal, replicate 2: 21696; Renilla reference signal, replicate 1: 1452; Renilla reference signal, replicate 2: 1452; outcome: inactive
CG42342 [DRSC15010] → firefly Hh reporter signal, replicate 1: 1.85e5; firefly Hh reporter signal, replicate 2: 1.64e5; Renilla reference signal, replicate 1: 6066; Renilla reference signal, replicate 2: 4740; outcome: inactive
CG42342 [DRSC15011] → firefly Hh reporter signal, replicate 1: 1.18e5; firefly Hh reporter signal, replicate 2: 1.60e5; Renilla reference signal, replicate 1: 3989; Renilla reference signal, replicate 2: 4551; outcome: inactive
CG42342 [DRSC15012] → firefly Hh reporter signal, replicate 1: 1.11e5; firefly Hh reporter signal, replicate 2: 92940; Renilla reference signal, replicate 1: 4176; Renilla reference signal, replicate 2: 2640; outcome: inactive
Lim3 [DRSC02475] → firefly Hh reporter signal, replicate 1: 1.23e5; firefly Hh reporter signal, replicate 2: 84258; Renilla reference signal, replicate 1: 3409; Renilla reference signal, replicate 2: 7716; outcome: inactive
Lim3 [DRSC03363] → firefly Hh reporter signal, replicate 1: 35420; firefly Hh reporter signal, replicate 2: 22180; Renilla reference signal, replicate 1: 1004; Renilla reference signal, replicate 2: 2792; outcome: inactive
